These are yes or no findings as the source states them, for the method shown. Some binding calls cover weakened binding; strength is not graded here.
Target: recombinant histone H1.0 (UniProt P07305)
Test: cross-linking; recombinant histones mixed (100 pmol each) in 100 mM HEPES pH 7.6, SDS removed, treated with one-tenth volume of 0.5% formaldehyde at 25°C for 10 min; 2D electrophoresis (AUT-PAGE then SDS-PAGE) and western blot; both purified

Protein sequences, listed by entry. Tags and fused reporters are not part of them.
UniProt P07305: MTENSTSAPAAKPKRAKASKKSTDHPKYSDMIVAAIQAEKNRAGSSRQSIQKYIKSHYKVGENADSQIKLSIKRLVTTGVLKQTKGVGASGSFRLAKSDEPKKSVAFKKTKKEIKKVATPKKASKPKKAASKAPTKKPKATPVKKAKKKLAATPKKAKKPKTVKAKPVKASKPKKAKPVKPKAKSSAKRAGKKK

Substance: recombinant histone H1.0 (from UniProt P07305 1-194) (other; other documents disagree on this pair)
- binding: binds
